No constants are given. Whether binding was seen depends on the method and setting. In cells and extracts the contact can be indirect. Here binding means that the protein was enriched with, or labelled near, the bait; the list need not be complete.
Target: bcl-2 wild-type protein fused to FLAG peptide (H1299 FLAG-bcl-2) (human) (UniProt P10415)
Test: affinity purification with mass spectrometry; H1299 FLAG-bcl-2 cells cross-linked with 1.0% PFA, lysed in 40 mM HEPES pH 7.4, 150 mM NaCl, 0.3% CHAPS; anti-FLAG antibody with Protein A/G agarose overnight at 4 °C; SDS-PAGE, 12 slices, nLC-MS/MS; proteins found with FLAG-empty vector subtracted

Amino acid sequences for entries named in this document (tags omitted). Residues count along the entry.
UniProt P10415: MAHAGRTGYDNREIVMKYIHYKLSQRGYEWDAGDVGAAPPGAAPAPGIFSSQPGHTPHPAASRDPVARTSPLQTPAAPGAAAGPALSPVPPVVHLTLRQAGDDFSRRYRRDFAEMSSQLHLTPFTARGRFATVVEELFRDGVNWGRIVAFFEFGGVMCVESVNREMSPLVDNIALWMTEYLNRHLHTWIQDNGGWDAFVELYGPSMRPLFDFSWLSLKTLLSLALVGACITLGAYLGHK
UniProt P20674, residues 42-150: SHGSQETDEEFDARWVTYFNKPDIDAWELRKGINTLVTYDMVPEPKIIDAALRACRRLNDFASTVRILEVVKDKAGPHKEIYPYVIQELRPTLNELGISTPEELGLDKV
UniProt P25786: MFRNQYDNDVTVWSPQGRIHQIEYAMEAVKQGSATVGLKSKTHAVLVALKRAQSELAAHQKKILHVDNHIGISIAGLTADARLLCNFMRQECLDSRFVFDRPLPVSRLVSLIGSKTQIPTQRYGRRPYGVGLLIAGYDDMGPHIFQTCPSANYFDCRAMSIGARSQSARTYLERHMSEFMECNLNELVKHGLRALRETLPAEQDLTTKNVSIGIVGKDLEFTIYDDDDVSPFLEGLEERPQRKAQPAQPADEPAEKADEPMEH
UniProt P25787: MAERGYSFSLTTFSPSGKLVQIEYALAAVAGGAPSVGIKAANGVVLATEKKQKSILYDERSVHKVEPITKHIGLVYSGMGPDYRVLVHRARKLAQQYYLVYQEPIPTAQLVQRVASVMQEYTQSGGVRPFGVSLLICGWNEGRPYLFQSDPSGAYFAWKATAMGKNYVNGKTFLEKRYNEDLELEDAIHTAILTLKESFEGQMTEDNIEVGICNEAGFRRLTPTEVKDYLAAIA
UniProt P28066: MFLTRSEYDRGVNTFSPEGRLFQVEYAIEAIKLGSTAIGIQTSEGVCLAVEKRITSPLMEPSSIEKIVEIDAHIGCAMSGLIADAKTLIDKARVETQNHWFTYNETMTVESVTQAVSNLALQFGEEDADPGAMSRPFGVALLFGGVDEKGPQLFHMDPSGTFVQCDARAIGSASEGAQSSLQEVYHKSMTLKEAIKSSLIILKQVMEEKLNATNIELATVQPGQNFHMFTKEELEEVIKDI
UniProt P21796: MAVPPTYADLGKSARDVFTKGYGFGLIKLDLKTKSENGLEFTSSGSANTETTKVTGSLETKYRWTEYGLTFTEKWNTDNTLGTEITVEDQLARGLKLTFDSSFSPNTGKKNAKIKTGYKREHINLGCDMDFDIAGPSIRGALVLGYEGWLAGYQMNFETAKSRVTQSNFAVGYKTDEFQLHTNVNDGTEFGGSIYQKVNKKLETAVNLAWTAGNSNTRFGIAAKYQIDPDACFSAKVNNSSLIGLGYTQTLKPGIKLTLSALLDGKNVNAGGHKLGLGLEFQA

Row | binding | Substance
1 | binds | cytochrome c oxidase subunits Va (COX5A) (from UniProt P20674 42-150)
2 | binds | proteasome subunit alpha type 1 (from UniProt P25786 1-263)

The next lines start with the substance.

Row | Substance | binding
3 | proteasome subunit alpha type 2 (from UniProt P25787 1-234) | binds
4 | proteasome subunit alpha type 5 (from UniProt P28066 1-241) | binds
5 | voltage-dependent anion channel 1 (VDAC1) (from UniProt P21796 1-283) | binds
